# According to publication PMC12621202, “RTx-303, an Orally Bioavailable Polθ Polymerase Inhibitor That Potentiates PARP Inhibitors in BRCA Mutant Tumors” (Journal of Medicinal Chemistry, 2025):
# Sequences of proteins named here, by UniProt entry; tags and fusion partners are left off. A change or cut given only in a name is not applied to a line headed by its entry.
# UniProt O75417: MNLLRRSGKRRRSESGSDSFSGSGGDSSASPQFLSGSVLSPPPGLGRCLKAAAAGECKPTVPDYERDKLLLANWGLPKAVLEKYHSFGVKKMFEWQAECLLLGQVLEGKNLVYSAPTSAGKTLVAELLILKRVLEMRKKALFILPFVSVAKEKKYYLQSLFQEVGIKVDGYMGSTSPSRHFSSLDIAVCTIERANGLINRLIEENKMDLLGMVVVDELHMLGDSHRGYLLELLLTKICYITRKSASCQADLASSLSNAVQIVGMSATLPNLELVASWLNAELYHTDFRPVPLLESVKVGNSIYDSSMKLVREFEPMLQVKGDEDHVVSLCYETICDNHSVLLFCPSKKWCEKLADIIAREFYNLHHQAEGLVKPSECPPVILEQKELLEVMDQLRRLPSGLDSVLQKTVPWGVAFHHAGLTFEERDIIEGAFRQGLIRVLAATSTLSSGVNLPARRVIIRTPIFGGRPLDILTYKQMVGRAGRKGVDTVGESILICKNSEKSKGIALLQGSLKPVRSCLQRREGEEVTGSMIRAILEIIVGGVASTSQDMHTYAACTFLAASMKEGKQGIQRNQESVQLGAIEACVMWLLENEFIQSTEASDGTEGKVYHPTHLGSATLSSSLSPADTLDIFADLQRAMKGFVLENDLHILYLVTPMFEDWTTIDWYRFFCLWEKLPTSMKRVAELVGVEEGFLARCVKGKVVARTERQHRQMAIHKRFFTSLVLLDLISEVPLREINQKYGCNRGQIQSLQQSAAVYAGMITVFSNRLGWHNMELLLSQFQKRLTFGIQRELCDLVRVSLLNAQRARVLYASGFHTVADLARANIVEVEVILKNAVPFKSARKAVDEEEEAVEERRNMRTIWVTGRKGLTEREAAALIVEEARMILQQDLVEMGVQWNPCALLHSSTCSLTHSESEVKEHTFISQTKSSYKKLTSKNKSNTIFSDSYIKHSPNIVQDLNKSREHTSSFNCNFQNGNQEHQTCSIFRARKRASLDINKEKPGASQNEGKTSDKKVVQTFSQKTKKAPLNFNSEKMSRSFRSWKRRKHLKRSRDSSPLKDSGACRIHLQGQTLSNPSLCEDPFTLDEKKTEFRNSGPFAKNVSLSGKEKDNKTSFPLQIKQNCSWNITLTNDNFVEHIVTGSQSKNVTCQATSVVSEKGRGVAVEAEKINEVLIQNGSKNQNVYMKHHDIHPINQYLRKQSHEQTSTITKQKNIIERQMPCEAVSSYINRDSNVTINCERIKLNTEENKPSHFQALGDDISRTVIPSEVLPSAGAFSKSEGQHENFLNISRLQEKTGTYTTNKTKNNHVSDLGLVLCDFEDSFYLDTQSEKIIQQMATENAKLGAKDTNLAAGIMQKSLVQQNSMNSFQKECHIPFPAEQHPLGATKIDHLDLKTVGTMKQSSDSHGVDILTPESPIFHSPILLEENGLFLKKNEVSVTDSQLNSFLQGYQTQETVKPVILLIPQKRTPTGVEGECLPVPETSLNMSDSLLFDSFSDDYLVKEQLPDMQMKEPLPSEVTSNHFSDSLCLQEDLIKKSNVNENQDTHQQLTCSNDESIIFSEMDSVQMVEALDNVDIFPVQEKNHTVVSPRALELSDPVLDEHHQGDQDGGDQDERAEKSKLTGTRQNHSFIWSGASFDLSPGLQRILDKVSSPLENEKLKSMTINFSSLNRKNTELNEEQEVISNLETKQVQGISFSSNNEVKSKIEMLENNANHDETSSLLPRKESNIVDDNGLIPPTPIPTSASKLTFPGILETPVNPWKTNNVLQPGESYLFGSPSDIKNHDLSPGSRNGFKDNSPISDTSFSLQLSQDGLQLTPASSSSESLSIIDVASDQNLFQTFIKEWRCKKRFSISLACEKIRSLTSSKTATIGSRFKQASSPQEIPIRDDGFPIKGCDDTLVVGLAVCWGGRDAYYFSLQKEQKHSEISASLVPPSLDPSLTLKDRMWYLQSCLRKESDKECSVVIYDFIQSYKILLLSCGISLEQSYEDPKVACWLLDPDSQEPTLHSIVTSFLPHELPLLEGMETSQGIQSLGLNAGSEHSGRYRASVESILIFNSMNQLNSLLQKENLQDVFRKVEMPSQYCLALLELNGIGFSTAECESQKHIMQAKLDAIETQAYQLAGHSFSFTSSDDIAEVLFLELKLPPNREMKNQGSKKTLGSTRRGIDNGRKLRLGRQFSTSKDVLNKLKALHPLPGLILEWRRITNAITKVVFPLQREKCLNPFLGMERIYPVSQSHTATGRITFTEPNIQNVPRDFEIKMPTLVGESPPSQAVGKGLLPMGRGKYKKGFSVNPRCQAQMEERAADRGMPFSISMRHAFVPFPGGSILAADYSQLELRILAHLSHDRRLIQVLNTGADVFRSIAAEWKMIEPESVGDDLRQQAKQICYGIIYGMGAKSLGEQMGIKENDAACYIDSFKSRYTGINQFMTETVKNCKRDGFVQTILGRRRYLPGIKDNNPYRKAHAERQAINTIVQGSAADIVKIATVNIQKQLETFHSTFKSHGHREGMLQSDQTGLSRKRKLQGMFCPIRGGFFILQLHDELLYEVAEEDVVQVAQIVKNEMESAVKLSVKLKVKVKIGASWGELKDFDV
# The exact form of at least one protein or probe is not confirmed.
# Biological target: PolθΔL (Polθ-pol, five flexible loops replaced by Gly-Ser spacers) (UniProt O75417)
# Test: X-ray crystallography
# Conditions: ddGTP, Crystallization (hanging drop): 2.5 mg/mL PolθΔL, 50 μM DNA duplex, 170 μM inhibitor, 1 mM ddGTP, 300 μM sucrose monolaurate, 1 mM MgCl2, 20 mM spermine, recombinant protein, protein details: N-terminal 6xHis-SUMO-PreScission, cleaved
sequence,measurement,setting,value
CGACGTCGCAGCGC / GCGAGACTCCGCGCTGCGACGTCG [primer/template DNA duplex],binding result,"RTx-161, 1 mM Mg2+, 3.31 Å",binds
same,binding result,"RTx-302, 1 mM Mg2+",binds
